PMC1334198
These are yes or no findings as the source states them, for the method shown. Binding seen in cells or lysates may run through a third protein.

Target: FCH domain of RhoGAP4 (human)
Test: pull-down; GST-tagged RhoGAP4 domain incubated with HL-60 lysate, eluted with glutathione, blotted for Hem-1; only the target purified

B1: hematopoietic protein 1 (Hem-1) (protein, UniProt P55160 1-1127)
chain: MSLTSAYQHKLAEKLTILNDRGQGVLIRMYNIKKTCSDPKSKPPFLLEKSMEPSLKYINKKFPNIDVRNSTQHLGPVHREKAEIIRFLTNYYQSFVDVMEFRDHVYELLNTIDACQCHFDINLNFDFTRSYLDLIVTYTSVILLLSRIEDRRILIGMYNCAHEMLHGHGDPSFARLGQMVLEYDHPLKKLTEEFGPHTKAVSGALLSLHFLFVRRNQGAEQWRSAQLLSLISNPPAMINPANSDTMACEYLSVEVMERWIIIGFLLCHGCLNSNSQCQKLWKLCLQGSLYITLIREDVLQVHKVTEDLFSSLKGYGKRVADIKESKEHVIANSGQFHCQRRQFLRMAVKELETVLADEPGLLGPKALFAFMALSFIRDEVTWLVRHTENVTKTKTPEDYADSSIAELLFLLEGIRSLVRRHIKVIQQYHLQYLARFDALVLSDIIQNLSVCPEEESIIMSSFVSILSSLNLKQVDNGEKFEFSGLRLDWFRLQAYTSVAKAPLHLHENPDLAKVMNLIVFHSRMLDSVEKLLVETSDLSTFCFHLRIFEKMFAMTLEESAMLRYAIAFPLICAHFVHCTHEMCPEEYPHLKNHGLHHCNSFLEELAKQTSNCVLEICAEQRNLSEQLLPKHCATTISKAKNKKTRKQRQTPRKGEPERDKPGAESHRKNRSIVTNMDKLHLNLTELALTMNHVYSFSVFEHTIFPSEYLSSHLEARLNRAIVWLAGYNATTQEIVRPSELLAGVKAYIGFIQSLAQFLGADASRVIRNALLQQTQPLDSCGEQTITTLYTNWYLESLLRQASSGTIILSPAMQAFVSLPREGEQNFSAEEFSDISEMRALAELLGPYGMKFLSENLMWHVTSQIVELKKLVVENMDILVQIRSNFSKPDLMASLLPQLTGAENVLKRMTIIGVILSFRAMAQEGLREVFSSHCPFLMGPIECLKEFVTPDTDIKVTLSIFELASAAGVGCDIDPALVAAIANLKADTSSPEEEYKVACLLLIFLAVSLPLLATDPSSFYSIEKDGYNNNIHCLTKAIIQVSAALFTLYNKNIETHLKEFLVVASVSLLQLGQETDKLKTRNRESISLLMRLVVEESSFLTLDMLESCFPYVLLRNAYREVSRAFHLN
**Q.** For B1, which binding is on record?
**A.** no binding
